Data published in US20060063228A1.
No constants are given. Whether binding was seen depends on the method and setting. Some binding calls cover weakened binding; strength is not graded here.

Sequences of proteins named here, by UniProt entry; tags and fusion partners are left off. A change or cut given only in a name is not applied to a line headed by its entry.
UniProt P35225: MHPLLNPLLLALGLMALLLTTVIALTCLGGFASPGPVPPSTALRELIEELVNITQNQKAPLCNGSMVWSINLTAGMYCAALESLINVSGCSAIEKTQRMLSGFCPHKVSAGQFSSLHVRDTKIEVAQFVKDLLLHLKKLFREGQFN

Molecular target: IL-13 bound to mAb13.2 immobilized on the chip (human) (UniProt P35225)
Assay: BIACORE; IL-13 captured on immobilized mAb13.2, IL-13Rα1 in solution

B1: IL-13Rα1 (receptor, UniProt P78552 22-343, looked up)
chain: GGGGAAPTETQPPVTNLSVSVENLCTVIWTWNPPEGASSNCSLWYFSHFGDKQDKKIAPETRRSIEVPLNERICLQVGSQCSTNESEKPSILVEKCISPPEGDPESAVTELQCIWHNLSYMKCSWLPGRNTSPDTNYTLYYWHRSLEKIHQCENIFREGQYFGCSFDLTKVKDSSFEQHSVQIMVKDNAGKIKPSFNIVPLTSRVKPDPPHIKNLSFHNDDLYVQWENPQNFISRCLFYEVEVNNSQTETHNVFYVQEAKCENPEFERNVENTSCFMVPGVLPDTLNTVRIRVKTNKLCYEDDKLWSNWSQEMSIGKKRNST
binding: binds
